Measurements as given in publication PMC3372510.
These are yes or no findings as the source states them, for the method shown. For some assays here: In cells and extracts the contact can be indirect. Some entries that bind do so weakly or less than the wild type. Where a sequence is shown, tags or fusion partners need not be part of it.

Amino acid sequences for entries named in this document (tags omitted).
UniProt Q14974: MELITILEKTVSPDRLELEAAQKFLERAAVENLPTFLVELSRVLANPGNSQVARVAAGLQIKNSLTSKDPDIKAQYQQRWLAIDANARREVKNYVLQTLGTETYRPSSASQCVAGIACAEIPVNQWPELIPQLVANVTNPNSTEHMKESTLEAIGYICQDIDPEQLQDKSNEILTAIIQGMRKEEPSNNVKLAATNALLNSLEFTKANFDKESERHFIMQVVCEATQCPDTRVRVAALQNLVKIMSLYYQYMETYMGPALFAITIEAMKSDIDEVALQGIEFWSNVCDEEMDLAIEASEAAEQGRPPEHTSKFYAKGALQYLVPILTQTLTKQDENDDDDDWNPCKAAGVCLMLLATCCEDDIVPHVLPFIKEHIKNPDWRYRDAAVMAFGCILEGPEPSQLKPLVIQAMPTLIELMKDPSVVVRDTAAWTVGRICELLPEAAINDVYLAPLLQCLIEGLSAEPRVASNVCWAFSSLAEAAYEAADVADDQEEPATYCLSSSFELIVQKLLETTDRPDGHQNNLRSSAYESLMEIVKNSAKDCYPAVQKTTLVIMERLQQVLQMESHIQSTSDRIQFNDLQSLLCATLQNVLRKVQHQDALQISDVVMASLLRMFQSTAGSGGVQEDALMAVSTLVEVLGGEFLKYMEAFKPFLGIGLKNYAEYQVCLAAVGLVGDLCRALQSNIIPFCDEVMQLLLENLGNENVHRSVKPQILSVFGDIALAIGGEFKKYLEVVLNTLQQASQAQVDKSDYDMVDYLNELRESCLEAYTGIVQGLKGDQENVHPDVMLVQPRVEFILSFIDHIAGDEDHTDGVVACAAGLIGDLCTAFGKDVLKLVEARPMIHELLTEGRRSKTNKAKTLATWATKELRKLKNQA

B1: FLAG-ARTD15 (human PARP16/ARTD15, N-terminally FLAG-tagged, full length) (enzyme, UniProt Q8N5Y8 1-322)
chain: MQPSGWAAAREAAGRDMLAADLRCSLFASALQSYKRDSVLRPFPASYARGDCKDFEALLADASKLPNLKELLQSSGDNHKRAWDLVSWILSSKVLTIHSAGKAEFEKIQKLTGAPHTPVPAPDFLFEIEYFDPANAKFYETKGERDLIYAFHGSRLENFHSIIHNGLHCHLNKTSLFGEGTYLTSDLSLALIYSPHGHGWQHSLLGPILSCVAVCEVIDHPDVKCQTKKKDSKEIDRRRARIKHSEGGDIPPKYFVVTNNQLLRVKYLLVYSQKPPKRASSQLSWFSSHWFTVMISLYLLLLLIVSVINSSAFQHFWNRAKR

Tests used:
[1] = biological target: T1, GST-ARTD15 (recombinant, full length) (human) (UniProt Q8N5Y8); experiment: pull-down; GST-ARTD15 or GST (0.1 µM) incubated over-night at 4°C with increasing amounts of His-Kapß1 in 50 mM Tris-HCl pH 7.4, 100 mM NaCl, 0.1% Triton X-100, 0.1% NP-40, 1 mg/ml BSA; Glutathione Sepharose 4B; anti-His blot; both purified
T1 sequence: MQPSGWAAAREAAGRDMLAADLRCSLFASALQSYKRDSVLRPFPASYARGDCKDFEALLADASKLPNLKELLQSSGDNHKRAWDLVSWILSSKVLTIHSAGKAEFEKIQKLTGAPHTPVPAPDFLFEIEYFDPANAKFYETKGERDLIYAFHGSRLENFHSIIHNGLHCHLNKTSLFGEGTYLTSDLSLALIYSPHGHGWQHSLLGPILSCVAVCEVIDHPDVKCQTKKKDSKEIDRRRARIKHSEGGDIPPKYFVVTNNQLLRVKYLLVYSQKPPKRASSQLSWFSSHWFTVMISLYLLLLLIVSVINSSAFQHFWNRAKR

[2] = biological target: Karyopherin-ß1/importin-ß1 (endogenous) (human (endogenous in HEK293 and HeLa)) (UniProt Q14974); experiment: co-IP; total lysates (2 mg) of HeLa cells over-expressing FLAG-ARTD15 immunoprecipitated with anti-Kapß1 antibody or control IgG, over-night at 4°C, protein-A sepharose; IP buffer with 0.2% Triton X-100; immunoblot

Molecule | binding [1] | binding [2]
His-Kapß1 (recombinant, full length) (from UniProt Q14974 1-876) | binds | 
B1 |  | binds
